Measured values as given in patent US20100160268A1, “Isoflavonoid Analogs and their Metal Conjugates as Anti-Cancer Agents” (priority 2005, published 2010).
Some of these results come from one statement about several compounds together. At least one compound was matched to its structure with a doubt left.

What was measured:
BxPC3 = test: MTT cell viability assay, BxPC3; assay type: cell-based; conditions: BxPC3 cells, text b152
COLO357 = test: MTT cell viability assay, COLO357; assay type: cell-based; conditions: COLO 357 cells, text b152

## NC1=[S+][Cu-2]([Cl])([Cl])[N+](=Cc2coc3ccccc3c2=O)N1 [FPA-124]
BxPC3
  concentration inhibiting growth, BxPC3: > 20 µM
COLO357
  concentration inhibiting growth, COLO 357: > 20 µM
